Results on one compound are retold here after the supplement of paper PMC12420376.

The structures appear in SMILES notation.

In assay [1] the test system is KURAMOCHI
Kind of assay: drug sensitivity score (DSS2) on cancer cell count; higher = more sensitive; extreme values may be limits of the assay. As to conditions: 72 h. The method, boiled down: (§1)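 Cancer cell counts came from 10× images (4 fields) of fixed cells immunostained for CK8/18 with Hoechst. The ovarian cancer cells had been grown alone or in 1:1 direct co-culture with lung or skin fibroblasts on 384-well plates pre-spotted acoustically with 528 approved and investigational compounds at 5 concentrations, then treated for 72 h. Breeze was used to derive a drug sensitivity score from logistic fits of the data.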

Assay [2] relates to OVCAR8. Described as above. As to conditions: 72 h. The method, boiled down:
as §1

Setting [3] is: co-cultured fibroblast: BJHTERT.
Setting [4] is: co-cultured fibroblast: none (monoculture).

As to `C[C@@H]1C[C@H](N)C[C@H](c2ccncc2NC(=O)c2ccc(F)c(-c3c(F)cccc3F)n2)C1` [PIM-447], the drug sensitivity score was 1.5 DSS in assay [1] (setting [3]); 2.9 DSS in assay [1] (co-cultured fibroblast: WI38); 1.9 DSS in assay [1] (setting [4]); 2.7 DSS in assay [2] (setting [3]); 0 DSS in assay [2] (co-cultured fibroblast: WI38); 1.7 DSS in assay [2] (setting [4]).
